Laboratory results taken from PMC11425283.
These are yes or no findings as the source states them, for the method shown. In cells and extracts the contact can be indirect. A yes stands for co-enrichment or nearness to the bait. Other partners may have been found.

The chains behind the UniProt entries cited, without tags or fusion partners. Where a name states a change or a piece, a line headed by the entry shows the natural chain unless it says otherwise.
UniProt P09958: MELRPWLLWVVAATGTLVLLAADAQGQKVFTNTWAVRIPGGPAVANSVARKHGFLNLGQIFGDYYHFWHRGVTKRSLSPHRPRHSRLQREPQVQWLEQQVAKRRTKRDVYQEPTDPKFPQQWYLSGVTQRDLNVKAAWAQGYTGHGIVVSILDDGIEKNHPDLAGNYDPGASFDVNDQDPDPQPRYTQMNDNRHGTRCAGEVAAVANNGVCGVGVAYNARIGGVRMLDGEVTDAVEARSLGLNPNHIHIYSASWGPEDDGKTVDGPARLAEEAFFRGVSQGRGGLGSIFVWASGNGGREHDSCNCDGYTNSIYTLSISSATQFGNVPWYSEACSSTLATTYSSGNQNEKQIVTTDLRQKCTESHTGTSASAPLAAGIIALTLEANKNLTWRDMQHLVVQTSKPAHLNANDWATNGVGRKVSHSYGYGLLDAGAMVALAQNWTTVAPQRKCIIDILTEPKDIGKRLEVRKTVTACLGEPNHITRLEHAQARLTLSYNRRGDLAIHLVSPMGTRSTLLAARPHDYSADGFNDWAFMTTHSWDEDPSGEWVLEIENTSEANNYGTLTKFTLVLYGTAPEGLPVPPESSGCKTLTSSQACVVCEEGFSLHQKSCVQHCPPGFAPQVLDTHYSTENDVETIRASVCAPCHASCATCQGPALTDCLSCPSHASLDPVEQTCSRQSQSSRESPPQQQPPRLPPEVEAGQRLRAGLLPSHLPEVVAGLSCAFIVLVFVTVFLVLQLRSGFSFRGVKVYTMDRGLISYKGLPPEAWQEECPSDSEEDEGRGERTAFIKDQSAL

B1: USP19, endogenous (enzyme, UniProt O94966 1-1318)
chain: MSGGASATGPRRGPPGLEDTTSKKKQKDRANQESKDGDPRKETGSRYVAQAGLEPLASGDPSASASHAAGITGSRHRTRLFFPSSSGSASTPQEEQTKEGACEDPHDLLATPTPELLLDWRQSAEEVIVKLRVGVGPLQLEDVDAAFTDTDCVVRFAGGQQWGGVFYAEIKSSCAKVQTRKGSLLHLTLPKKVPMLTWPSLLVEADEQLCIPPLNSQTCLLGSEENLAPLAGEKAVPPGNDPVSPAMVRSRNPGKDDCAKEEMAVAADAATLVDEPESMVNLAFVKNDSYEKGPDSVVVHVYVKEICRDTSRVLFREQDFTLIFQTRDGNFLRLHPGCGPHTTFRWQVKLRNLIEPEQCTFCFTASRIDICLRKRQSQRWGGLEAPAARVGGAKVAVPTGPTPLDSTPPGGAPHPLTGQEEARAVEKDKSKARSEDTGLDSVATRTPMEHVTPKPETHLASPKPTCMVPPMPHSPVSGDSVEEEEEEEKKVCLPGFTGLVNLGNTCFMNSVIQSLSNTRELRDFFHDRSFEAEINYNNPLGTGGRLAIGFAVLLRALWKGTHHAFQPSKLKAIVASKASQFTGYAQHDAQEFMAFLLDGLHEDLNRIQNKPYTETVDSDGRPDEVVAEEAWQRHKMRNDSFIVDLFQGQYKSKLVCPVCAKVSITFDPFLYLPVPLPQKQKVLPVFYFAREPHSKPIKFLVSVSKENSTASEVLDSLSQSVHVKPENLRLAEVIKNRFHRVFLPSHSLDTVSPSDTLLCFELLSSELAKERVVVLEVQQRPQVPSVPISKCAACQRKQQSEDEKLKRCTRCYRVGYCNQLCQKTHWPDHKGLCRPENIGYPFLVSVPASRLTYARLAQLLEGYARYSVSVFQPPFQPGRMALESQSPGCTTLLSTGSLEAGDSERDPIQPPELQLVTPMAEGDTGLPRVWAAPDRGPVPSTSGISSEMLASGPIEVGSLPAGERVSRPEAAVPGYQHPSEAMNAHTPQFFIYKIDSSNREQRLEDKGDTPLELGDDCSLALVWRNNERLQEFVLVASKELECAEDPGSAGEAARAGHFTLDQCLNLFTRPEVLAPEEAWYCPQCKQHREASKQLLLWRLPNVLIVQLKRFSFRSFIWRDKINDLVEFPVRNLDLSKFCIGQKEEQLPSYDLYAVINHYGGMIGGHYTACARLPNDRSSQRSDVGWRLFDDSTVTTVDESQVVTRYAYVLFYRRRNSPVERPPRAGHSEHHPDLGPAAEAAASQASRIWQELEAEEEPVPEGSGPLGPWGPQDWVGPLPRGPTTPDEGCLRYFVLGTVAALVALVLNVFYPLVSQSRWR
B2: USP33, endogenous (enzyme, UniProt Q8TEY7 1-942)
chain: MTGSNSHITILTLKVLPHFESLGKQEKIPNKMSAFRNHCPHLDSVGEITKEDLIQKSLGTCQDCKVQGPNLWACLENRCSYVGCGESQVDHSTIHSQETKHYLTVNLTTLRVWCYACSKEVFLDRKLGTQPSLPHVRQPHQIQENSVQDFKIPSNTTLKTPLVAVFDDLDIEADEEDELRARGLTGLKNIGNTCYMNAALQALSNCPPLTQFFLDCGGLARTDKKPAICKSYLKLMTELWHKSRPGSVVPTTLFQGIKTVNPTFRGYSQQDAQEFLRCLMDLLHEELKEQVMEVEEDPQTITTEETMEEDKSQSDVDFQSCESCSNSDRAENENGSRCFSEDNNETTMLIQDDENNSEMSKDWQKEKMCNKINKVNSEGEFDKDRDSISETVDLNNQETVKVQIHSRASEYITDVHSNDLSTPQILPSNEGVNPRLSASPPKSGNLWPGLAPPHKKAQSASPKRKKQHKKYRSVISDIFDGTIISSVQCLTCDRVSVTLETFQDLSLPIPGKEDLAKLHSSSHPTSIVKAGSCGEAYAPQGWIAFFMEYVKRFVVSCVPSWFWGPVVTLQDCLAAFFARDELKGDNMYSCEKCKKLRNGVKFCKVQNFPEILCIHLKRFRHELMFSTKISTHVSFPLEGLDLQPFLAKDSPAQIVTYDLLSVICHHGTASSGHYIAYCRNNLNNLWYEFDDQSVTEVSESTVQNAEAYVLFYRKSSEEAQKERRRISNLLNIMEPSLLQFYISRQWLNKFKTFAEPGPISNNDFLCIHGGVPPRKAGYIEDLVLMLPQNIWDNLYSRYGGGPAVNHLYICHTCQIEAEKIEKRRKTELEIFIRLNRAFQKEDSPATFYCISMQWFREWESFVKGKDGDPPGPIDNTKIAVTKCGNVMLRQGADSGQISEETWNFLQSIYGGGPEVILRPPVVHVDPDILQAEEKIEVETRSL

Target: furin (FLAG-tagged, wild type) (human) (UniProt P09958)
Experiment: affinity purification with mass spectrometry; furin-FLAG expressed in HEK293T; RIPA lysate; IP with anti-FLAG M2 magnetic beads; SDS-PAGE, Nano LC-MS/MS

Binder | binding
B1 | binds
B2 | binds
